No constants are given. Whether binding was seen depends on the method and setting. In cells and extracts the contact can be indirect. A yes stands for co-enrichment or nearness to the bait. Other partners may have been found. Tags and fused reporters may be left off the sequences shown.
Molecular target: T1, DENR-3×FLAG-NeonGreen-dTAG (mouse (endogenous in NIH/3T3)) (UniProt Q9CQJ6)
T1 sequence: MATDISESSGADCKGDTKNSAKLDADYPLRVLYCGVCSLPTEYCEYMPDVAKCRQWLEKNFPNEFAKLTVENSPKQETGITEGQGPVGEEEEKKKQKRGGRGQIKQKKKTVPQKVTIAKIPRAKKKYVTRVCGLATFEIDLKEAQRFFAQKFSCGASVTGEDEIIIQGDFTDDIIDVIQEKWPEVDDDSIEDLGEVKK
Experiment: affinity purification with mass spectrometry

- binding: binds
B1: MCTS2 (protein, UniProt Q9CQ21 1-181)
chain: MFKKFDEKESVSNCIQLKTSVIKGIKSQLTEQFPGIEPWLNQIMPKKDPVKIVRCHEHMEILTVNGELLFFRQRKGPFYPTLRLLHKYPFILPHQQVDKGAIKFVLSGANIMCPGLTSPGAKLYTAAVDTIVAVMAEGKEHALCVGVMKMAAADIEKINKGIGIENIHYLNDGLWHMKTYK

Reference: paper doi:10.1101/2024.06.05.597545
